Test results reported in patent publication EP0305387B2, “INSULINOTROPIC HORMONE” (priority 1986, dated 1996).
Not every detail of the peptide structures is certain; ends, links or a residue may be inferred.

What was measured:
[1] = test system: insulin mRNA; assay: Insulin mRNA levels in RIN-38 insulinoma cells (Northern hybridization, densitometry); format: cell-based, rat; details: peptide 10^-7M, six hours, RIN-38 cells
[2] = test system: actin mRNA; assay: Actin mRNA levels in RIN-38 insulinoma cells (Northern hybridization, densitometry); format: cell-based, rat; details: peptide 10^-7M, six hours, RIN-38 cells
[3] = test system: angiotensinogen mRNA; assay: Angiotensinogen mRNA levels in RIN-38 insulinoma cells (Northern hybridization, densitometry); format: cell-based, rat; details: peptide 10^-7M, six hours, RIN-38 cells
[4] = test system: rat pancreas; assay: Perfused rat pancreas, insulin levels by radioimmunoassay; format: in vivo; details: perfused into rat pancreas at 5 x 10^-8M
[5] = test system: rat islet glucagon-producing cell line; assay: Hormone specific mRNA in glucagon-producing islet cell line; format: cell-based; details: 10^-7M, 24 hours
[6] = test system: prolactin mRNA; assay: Prolactin mRNA levels in GH4 pituitary cells; format: cell-based; details: 10^-7M, 24 hours
[7] = test system: ACTH mRNA; assay: ACTH mRNA levels in AtT-20 pituitary cells; format: cell-based; details: 10^-7M, 24 hours

Structure (SMILES): CC[C@H](C)[C@H](NC(=O)[C@H](Cc1ccccc1)NC(=O)[C@H](CCC(=O)O)NC(=O)[C@H](CCCCN)NC(=O)[C@H](C)NC(=O)[C@H](C)NC(=O)[C@H](CCC(N)=O)NC(=O)CNC(=O)[C@H](CCC(=O)O)NC(=O)[C@H](CC(C)C)NC(=O)[C@H](Cc1ccc(O)cc1)NC(=O)[C@H](CO)NC(=O)[C@H](CO)NC(=O)[C@@H](NC(=O)[C@H](CC(=O)O)NC(=O)[C@H](CO)NC(=O)[C@@H](NC(=O)[C@H](Cc1ccccc1)NC(=O)[C@@H](NC(=O)CNC(=O)[C@H](CCC(=O)O)NC(=O)[C@H](C)NC(=O)[C@H](Cc1c[nH]cn1)NC(=O)[C@H](CCCNC(=N)N)NC(=O)[C@H](CCC(=O)O)NC(=O)[C@H](Cc1ccccc1)NC(=O)[C@H](CCC(=O)O)NC(=O)[C@H](CC(=O)O)NC(=O)[C@@H](N)Cc1c[nH]cn1)[C@@H](C)O)[C@@H](C)O)C(C)C)C(=O)N[C@@H](C)C(=O)N[C@@H](Cc1c[nH]c2ccccc12)C(=O)N[C@@H](CC(C)C)C(=O)N[C@H](C(=O)N[C@@H](CCCCN)C(=O)NCC(=O)N[C@@H](CCCNC(=N)N)C(=O)NCC(=O)O)C(C)C [GLP-1 (1-37), reference compound]
- MESSENGER RNAs INSULIN [1]: 1.87±0.56 arbitrary densitometric units
- MESSENGER RNAs ACTIN [2]: 0.91±0.02 arbitrary densitometric units
- MESSENGER RNAs ANGIOTENSINOGEN [3]: 2.25±0.20 arbitrary densitometric units
- increase in serum insulin levels [4]: 2 fold
- amount of hormone specific mRNA [5]: did not have any detectable effect
- Prolactin mRNA levels [6]: did not have any detectable effect
- ACTH mRNA levels [7]: did not have any detectable effect
